Test [1] addresses human NLRP1(227–990), NACHT-LRR fragment (human) (UniProt Q9C000). Description: SEC; Superdex S200 XK16/60 column; single peak with an apparent molecular weight between 44 and 158 kDa; 25 mM MES pH 6.0, 200 mM NaCl, 5 mM MgCl2, 2 mM DTT; both purified. Background: In gel filtration, larger molecules generally elute earlier.
The target is the same in test [2]. Kind of test: SEC-SAXS; in-line 2.4 mL Superdex S200 column, beamline B21 at Diamond; samples at 2 mg/mL and 6 mg/mL; 25 mM MES pH 6.0, 500 mM NaCl, 5 mM MgSO4, 1 mM TCEP; 25°C; molecular weight derived from SAXS by three methods; both purified.
Test [3] has the same target. Kind of test: SEC; Superose 6 10/300 column; protein 0.5 mg/mL alone, with 0.2 mg/mL MDP and 1 mM ATP, or with MDP and 1 mM ATPγS; incubated at room temperature for about 3–4 hours before loading; both purified.

These are yes or no findings as the source states them, for the method shown.

B1: human NLRP1(227–990), NACHT-LRR fragment (domain or fragment, UniProt Q9C000 227-990)
chain: SEKGRPPWAAVVGTPPQAHTSLQPHHHPWEPSVRESLCSTWPWKNEDFNQKFTQLLLLQRPHPRSQDPLVKRSWPDYVEENRGHLIEIRDLFGPGLDTQEPRIVILQGAAGIGKSTLARQVKEAWGRGQLYGDRFQHVFYFSCRELAQSKVVSLAELIGKDGTATPAPIRQILSRPERLLFILDGVDEPGWVLQEPSSELCLHWSQPQPADALLGSLLGKTILPEASFLITARTTALQNLIPSLEQARWVEVLGFSESSRKEYFYRYFTDERQAIRAFRLVKSNKELWALCLVPWVSWLACTCLMQQMKRKEKLTLTSKTTTTLCLHYLAQALQAQPLGPQLRDLCSLAAEGIWQKKTLFSPDDLRKHGLDGAIISTFLKMGILQEHPIPLSYSFIHLCFQEFFAAMSYVLEDEKGRGKHSNCIIDLEKTLEAYGIHGLFGASTTRFLLGLLSDEGEREMENIFHCRLSQGRNLMQWVPSLQLLLQPHSLESLHCLYETRNKTFLTQVMAHFEEMGMCVETDMELLVCTFCIKFSRHVKKLQLIEGRQHRSTWSPTMVVLFRWVPVTDAYWQILFSVLKVTRNLKELDLSGNSLSHSAVKSLCKTLRRPRCLLETLRLAGCGLTAEDCKDLAFGLRANQTLTELDLSFNVLTDAGAKHLCQRLRQPSCKLQRLQLVSCGLTSDCCQDLASVLSASPSLKELDLQQNNLDDVGVRLLCEGLRHPACKLIRLGLDQTTLSDEMRQELRALEQEKPQLLIFSRRKPS
Take B1: the binding result is listed as “no binding” in test [1], “no binding (tested: 6 mg/mL)” in test [2] and “no binding (tested: 0.5 mg/mL)” in test [3].

(Values after paper PMC5058472.)
